Data on 2 molecules can be found in PMC4104448.

By UniProt entry, the sequences of proteins in these tests, tags left out. Where a name states a change or a piece, a line headed by the entry shows the natural chain unless it says otherwise. Chains listed by the source or under a name are the forms on record and can include a tag or linker. Residues count along the entry.
UniProt P11717: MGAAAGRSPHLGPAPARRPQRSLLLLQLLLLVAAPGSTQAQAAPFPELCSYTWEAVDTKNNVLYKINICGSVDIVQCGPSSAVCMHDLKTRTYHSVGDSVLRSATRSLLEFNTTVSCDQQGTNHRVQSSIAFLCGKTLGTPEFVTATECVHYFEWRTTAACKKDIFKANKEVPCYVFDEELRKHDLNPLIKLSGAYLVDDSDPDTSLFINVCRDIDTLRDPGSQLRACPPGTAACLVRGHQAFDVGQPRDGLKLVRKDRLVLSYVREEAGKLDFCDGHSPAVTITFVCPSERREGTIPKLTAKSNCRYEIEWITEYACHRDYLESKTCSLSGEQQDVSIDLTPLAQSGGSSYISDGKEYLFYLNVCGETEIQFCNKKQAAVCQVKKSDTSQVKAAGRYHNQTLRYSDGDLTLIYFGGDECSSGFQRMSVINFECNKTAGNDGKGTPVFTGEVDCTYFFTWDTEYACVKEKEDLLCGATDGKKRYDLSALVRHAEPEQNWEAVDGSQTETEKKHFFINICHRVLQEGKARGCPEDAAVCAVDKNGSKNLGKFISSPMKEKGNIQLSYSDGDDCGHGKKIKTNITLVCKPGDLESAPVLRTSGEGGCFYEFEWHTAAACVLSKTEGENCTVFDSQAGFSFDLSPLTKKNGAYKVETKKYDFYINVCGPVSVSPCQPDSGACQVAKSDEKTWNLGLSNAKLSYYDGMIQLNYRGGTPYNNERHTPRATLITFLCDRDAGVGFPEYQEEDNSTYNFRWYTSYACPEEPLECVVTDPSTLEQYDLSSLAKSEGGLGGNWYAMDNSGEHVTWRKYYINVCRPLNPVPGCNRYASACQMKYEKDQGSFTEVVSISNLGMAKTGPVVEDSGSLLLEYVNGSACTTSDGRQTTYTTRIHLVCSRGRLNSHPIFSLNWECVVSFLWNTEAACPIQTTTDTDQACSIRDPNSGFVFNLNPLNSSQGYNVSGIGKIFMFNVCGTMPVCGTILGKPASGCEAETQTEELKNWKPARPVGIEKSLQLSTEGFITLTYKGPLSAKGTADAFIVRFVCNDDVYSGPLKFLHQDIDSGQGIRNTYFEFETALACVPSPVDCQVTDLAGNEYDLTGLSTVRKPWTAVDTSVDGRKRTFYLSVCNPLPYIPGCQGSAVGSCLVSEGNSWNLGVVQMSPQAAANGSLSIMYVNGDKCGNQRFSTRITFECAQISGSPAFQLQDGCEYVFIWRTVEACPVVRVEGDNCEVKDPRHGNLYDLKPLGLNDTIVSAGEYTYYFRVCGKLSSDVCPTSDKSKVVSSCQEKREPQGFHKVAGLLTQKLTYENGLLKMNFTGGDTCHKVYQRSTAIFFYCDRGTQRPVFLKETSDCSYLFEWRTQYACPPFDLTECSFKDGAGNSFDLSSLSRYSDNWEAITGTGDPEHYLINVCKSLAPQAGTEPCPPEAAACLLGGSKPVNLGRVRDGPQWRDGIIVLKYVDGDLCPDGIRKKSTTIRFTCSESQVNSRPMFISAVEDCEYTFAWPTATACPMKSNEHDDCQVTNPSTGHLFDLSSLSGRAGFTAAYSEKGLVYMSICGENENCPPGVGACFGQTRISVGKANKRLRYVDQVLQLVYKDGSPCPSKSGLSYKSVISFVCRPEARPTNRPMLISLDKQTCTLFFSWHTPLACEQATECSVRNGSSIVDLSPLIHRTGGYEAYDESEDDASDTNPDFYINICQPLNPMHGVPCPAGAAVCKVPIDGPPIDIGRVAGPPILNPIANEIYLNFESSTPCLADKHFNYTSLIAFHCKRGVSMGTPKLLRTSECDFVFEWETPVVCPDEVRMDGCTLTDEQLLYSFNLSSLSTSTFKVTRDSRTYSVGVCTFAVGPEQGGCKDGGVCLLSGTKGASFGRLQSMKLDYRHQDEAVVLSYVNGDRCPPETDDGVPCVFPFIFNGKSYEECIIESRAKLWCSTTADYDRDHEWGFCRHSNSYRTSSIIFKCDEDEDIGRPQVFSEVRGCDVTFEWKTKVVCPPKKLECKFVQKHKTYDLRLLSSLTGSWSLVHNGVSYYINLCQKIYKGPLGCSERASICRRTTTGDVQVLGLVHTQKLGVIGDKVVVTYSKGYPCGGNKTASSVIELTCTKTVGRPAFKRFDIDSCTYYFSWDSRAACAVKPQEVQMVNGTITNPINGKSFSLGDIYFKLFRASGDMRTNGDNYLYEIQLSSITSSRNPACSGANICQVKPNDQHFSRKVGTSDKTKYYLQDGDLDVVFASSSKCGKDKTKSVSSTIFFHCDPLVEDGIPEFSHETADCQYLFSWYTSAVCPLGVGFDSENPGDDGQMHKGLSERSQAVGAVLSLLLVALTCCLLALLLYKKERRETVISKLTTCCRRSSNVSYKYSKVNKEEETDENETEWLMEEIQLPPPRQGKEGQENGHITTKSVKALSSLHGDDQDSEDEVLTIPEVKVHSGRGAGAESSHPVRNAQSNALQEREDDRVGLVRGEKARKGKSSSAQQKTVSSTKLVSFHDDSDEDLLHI
Full-length human CI-MPR (residues Q41-I2491) tagged at its C-terminal end with mVenus: residues 41-2491 of P11717
CI-MPR domains I-III (residue Q41-L489) with Rhodopsin 1D4 tag: residues 41-489 of P11717

The target of experiment [1] is CI-MPR domains I-III (residue Q41-L489) with Rhodopsin 1D4 tag (human) (UniProt P11717). Briefly: SPR; biotinylated β-GCase on a CM5 chip; LIMP-2 mixed 1:1 with CI-MPR domains I-III, or the same amount of LIMP-2 mixed with BSA, flowed over the chip. (SPR reads the build-up and loss of mass on a sensor chip optically.)
In experiment [2] the target is Full-length human CI-MPR (residues Q41-I2491) tagged at its C-terminal end with mVenus (human) (UniProt P11717). Briefly: FRET or BRET; FLIM-FRET in living COS 7 cells co-transfected with donor (mTFP1 fusion) and acceptor (mVenus fusion); time correlated single photon counting, 440-nm pulsed laser. (BRET reads energy transfer from a luciferase to a nearby fluorophore.)

Results are given in words; binding and its absence hold for the method and conditions named. For some assays here: Binding seen in cells or lysates may run through a third protein. For some assays here: Where a sequence is shown, tags or fusion partners need not be part of it. Some binding calls cover weakened binding; strength is not graded here.

B1: Wild-type LIMP-2 (soluble luminal domain; producing cells not stated for the experiment) (domain or fragment, UniProt Q14108 28-431)
chain: VFQKAVDQSIEKKIVLRNGTEAFDSWEKPPLPVYTQFYFFNVTNPEEILRGETPRVEEVGPYTYRELRNKANIQFGDNGTTISAVSNKAYVFERDQSVGDPKIDLIRTLNIPVLTVIEWSQVHFLREIIEAMLKAYQQKLFVTHTVDELLWGYKDEILSLIHVFRPDISPYFGLFYEKNGTNDGDYVFLTGEDSYLNFTKIVEWNGKTSLDWWITDKCNMINGTDGDSFHPLITKDEVLYVFPSDFCRSVYITFSDYESVQGLPAFRYKVPAEILANTSDNAGFCIPEGNCLGSGVLNVSICKNGAPIIMSFPHFYQADERFVSAIEGMHPNQEDHETFVDINPLTGIILKAAKRFQINIYVKKLDDFVETGDIRTMVFPVMYLNESVHIDKETASRLKSMINT
B1: the binding entry in experiment [1] is “binds”.

B2: Full-length human LIMP-2 N325Q tagged at its C-terminal end with mTFP1 (protein, UniProt Q14108 1-478)
chain: MGRCCFYTAGTLSLLLLVTSVTLLVARVFQKAVDQSIEKKIVLRNGTEAFDSWEKPPLPVYTQFYFFNVTNPEEILRGETPRVEEVGPYTYRELRNKANIQFGDNGTTISAVSNKAYVFERDQSVGDPKIDLIRTLNIPVLTVIEWSQVHFLREIIEAMLKAYQQKLFVTHTVDELLWGYKDEILSLIHVFRPDISPYFGLFYEKNGTNDGDYVFLTGEDSYLNFTKIVEWNGKTSLDWWITDKCNMINGTDGDSFHPLITKDEVLYVFPSDFCRSVYITFSDYESVQGLPAFRYKVPAEILANTSDNAGFCIPEGNCLGSGVLQVSICKNGAPIIMSFPHFYQADERFVSAIEGMHPNQEDHETFVDINPLTGIILKAAKRFQINIYVKKLDDFVETGDIRTMVFPVMYLNESVHIDKETASRLKSMINTTLIITNIPYIIMALGVFFGLVFTWLACKGQGSMDEGTADERAPLIRT
For the molecule B2, the binding entry in experiment [2] is on record as “no binding”.
